Experimental data taken from PMC7256328.
These are yes or no findings as the source states them, for the method shown. In cells and extracts the contact can be indirect. Binding can be weak; no strength is given. Where a sequence is shown, tags or fusion partners need not be part of it.

What was measured:
GFP-NOP58 [1] = target: T1, GFP-NOP58 (UniProt Q9Y2X3); experiment: co-IP; HEK293T co-transfected; IP with GFP or rabbit IgG, western blot of Myc, GFP and AcBMAL1K538; with and without Myc-CLOCK
T1 sequence: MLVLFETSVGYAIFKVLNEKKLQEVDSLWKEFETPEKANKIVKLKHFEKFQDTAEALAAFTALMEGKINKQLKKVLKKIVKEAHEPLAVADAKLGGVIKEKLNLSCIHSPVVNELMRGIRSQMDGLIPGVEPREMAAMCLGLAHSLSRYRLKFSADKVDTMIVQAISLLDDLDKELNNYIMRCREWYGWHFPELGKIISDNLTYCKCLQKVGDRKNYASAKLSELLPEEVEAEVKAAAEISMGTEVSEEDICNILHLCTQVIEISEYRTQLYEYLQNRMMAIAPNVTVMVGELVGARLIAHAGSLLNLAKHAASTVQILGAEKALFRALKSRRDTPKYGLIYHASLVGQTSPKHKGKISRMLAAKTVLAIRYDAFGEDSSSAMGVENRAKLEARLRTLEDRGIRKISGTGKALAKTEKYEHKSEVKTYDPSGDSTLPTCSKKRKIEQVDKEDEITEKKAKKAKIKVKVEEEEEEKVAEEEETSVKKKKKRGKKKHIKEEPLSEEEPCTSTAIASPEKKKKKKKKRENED

GFP-NOP58 [2] = target: T1, GFP-NOP58; experiment: FRET or BRET; FLIM-FRET live cell imaging in HEK293T; GFP-NOP58 donor, RFP-BMAL1 acceptor; phasor analysis

binding (GFP-NOP58 [1]) | binding (GFP-NOP58 [2]) | Substance
binds | – | Myc-BMAL1 (wild type)
binds | – | Myc-BMAL1K538Q
binds | – | Myc-BMAL1K538R
– | binds | RFP-BMAL1
